From PubChem BioAssay AID602441 (National Center for Advancing Translational Sciences (NCATS), 2012)
The whole screen tested about 1,300 compounds, of which fewer than 10 were called active. About 9% were inconclusive and are not listed. Calls come from the whole dose curve; as a rule, active = well fitted curve in the direction sought with a large enough effect; inconclusive = small, poorly fitted or top-dose-only effect, or another doubt; inactive = no such curve, though single readings can be large or run the other way. The list shows a part of the results.

assay: qHTS for antagonists of the Thyroid Stimulation Hormone Receptor: Hit Validation in Parental Cell Line; conditions: parental HEK293 cells lacking TSHR, counter-screen; series mostly up to 56.9 µM; activity change, negative = inhibition: at the top concentration; note: 0% is about no effect
Outline: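 Counterscreen in untransfected parental HEK-EM 293 cells. Lysate cAMP displaces cAMP-d2 from cryptate-tagged anti-cAMP antibody, and homogeneous TR-FRET is read at 665 nm with 337 nm excitation after stimulation.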

SMILES	activity change, negative = inhibition
O=C(Nc1ccc2c(c1)CCC2)c1cc(S(=O)(=O)Nc2ccc(F)cc2)c(Cl)cc1Cl	inactive: -1.68%
COC(=O)c1ccc(NC(=O)c2ccccc2)o1	inactive: 1.14%
O=C(Nc1ccccc1C(=O)N1CCN(c2cccc(Cl)c2)CC1)C1=CSCCO1	inactive: -6.98%
Cc1ccc(/C=N/n2c(COc3ccccc3)n[nH]c2=S)s1	inactive: 0.814%
CC(NC(=O)c1cccs1)C(S)c1ccccc1 (configuration not stated)	inactive: 1.86%
Cc1cccc(C)c1NC(=O)N1CCC(C(=O)c2ccc(F)cc2)CC1	inactive: 3.4%
CC1=CCC2C(=O)N(c3ccc(C(=O)Nc4ccccc4Cl)cc3)C(=O)C2C1 (configuration not stated)	inactive: 5.26%
COc1ccc(NC(=O)CSc2nc3[nH]c(=O)[nH]c(=O)c3s2)cc1OC	inactive: 4.98%
Cc1ccc(CCNC(=O)C2CCN(S(=O)(=O)c3cccc4cccnc34)CC2)cc1	inactive: -2.15%
CCCCCCCC[n+]1cccc2c3ccccc3ccc21	inactive: -12.3%
Clc1ccccc1CN(Cc1ccccc1)c1ncnc2nc[nH]c12	inactive: 2.66%
O=[N+]([O-])c1ccc(NC(=S)NCCc2ccc(F)cc2)cc1	inactive: -7.64%
CC(=O)N1CCc2cc(Br)cc(S(=O)(=O)N3CCC(C(=O)O)CC3)c21	inactive: -1.36%
O=C(c1ccco1)N1CCN(Cc2csc(-c3ccccc3Cl)n2)CC1	inactive: 3.66%
COC(=O)c1cc(=O)n(-c2c(Cl)cc(C(F)(F)F)cc2Cl)[nH]1	inactive: 2.2%
Cc1cccc(CSc2nc3ccccc3c(=O)n2C)c1	inactive: 1.25%
O=C(NCc1ccc(F)cc1)c1ccncc1	inactive: 4.26%
CC1CCCN(S(=O)(=O)c2csc(C(N)=O)c2)C1 (configuration not stated)	inactive: 2.8%
CC1=C(OC(=O)c2ccccc2)C(C)(C)C(c2ccccc2)OC1=O (configuration not stated)	inactive: 3.91%
COc1ccc(N(CC(=O)Nc2cc(Cl)ccc2OC)S(=O)(=O)c2c(C)noc2C)cc1	inactive: -5.89%
CCN(CC)S(=O)(=O)c1cc(NC(=O)C2CCN(c3ncnc4sc(C)c(C)c34)CC2)ccc1Cl	inactive: -9.16%
Nc1nc2nc(-c3ccccc3)cc(C(F)(F)F)c2s1	inactive: 0.263%
CN(C)c1ccc(NC(=O)C2C3C=CC(C3)C2C(=O)O)cc1 (configuration not stated)	inactive: 2.5%
N#CC(C#N)=NNc1ccc(S(=O)(=O)N2CCCCC2)cc1	inactive: -1.81%
COc1ccc(CNC(=O)CCS(=O)(=O)c2ccc3c(c2)CCN3C(C)=O)cc1	inactive: -0.187%
COc1ccc(-c2nnc(NC(=O)c3ccc(S(=O)(=O)N4CCCc5ccccc54)cc3)o2)cc1	inactive: -3.26%

Shown field by field: 3 of the compounds above.
CC1=CCC2C(=O)N(c3ccc(C(=O)Nc4ccccc4Cl)cc3)C(=O)C2C1 (configuration not stated)
  activity change, negative = inhibition: inactive: 5.26%
COc1ccc(NC(=O)CSc2nc3[nH]c(=O)[nH]c(=O)c3s2)cc1OC
  activity change, negative = inhibition: inactive: 4.98%
Cc1ccc(CCNC(=O)C2CCN(S(=O)(=O)c3cccc4cccnc34)CC2)cc1
  activity change, negative = inhibition: inactive: -2.15%

Later entries.

SMILES	activity change, negative = inhibition
CCCCn1c(-c2c(Cl)c(C)nn2C)n[nH]c1=S	inactive: 4.8%
COc1cc(C(C)=O)ccc1OCC(=O)Nc1ccc(Cl)c(S(=O)(=O)N2CCOCC2)c1	inactive: -0.886%
COC(=O)c1ccc(NC(=O)Nc2ccc(F)c(Cl)c2)cc1	inactive: -15.1%
O=C(Nc1cccc(S(=O)(=O)Nc2ccc(Cl)cc2)c1)c1ccc2c(c1)OCCO2	inactive: -4.6%
Nc1nnc(COc2ccc(Br)cc2Br)s1	inactive: 0.805%
CCCCOc1ncnc2c1[nH]c1ccccc12	inactive: -1.3%
O=C(c1ccc2c(=O)n(Cc3ccc4c(c3)OCO4)c(=S)[nH]c2c1)N1CCCCC1	inactive: 0.825%
O=C(c1ccc(Cl)c(S(=O)(=O)N2CCCCC2)c1)N1CCCC1	inactive: 4.01%
CCOc1ccc(CN(C)c2ccc(S(=O)(=O)N3CCN(C)CC3)cc2[N+](=O)[O-])cc1OC	inactive: -0.457%
O=C(Nc1ccc(Cl)cc1)c1cc2c(cc1O)[nH]c1ccccc12	inactive: -4.56%
CCn1c(=NC(=O)CSC(C)=O)sc2cc(OC)ccc21	inactive: -3.82%
Cc1onc(-c2ccccc2Cl)c1C(=O)NC(=S)Nc1ccc(C(C)(C)C)cc1	inactive: 3.45%
COc1ccc(-c2csc(NC(=O)C3=NN(c4ccccc4)C(=O)CC3)n2)cc1	inactive: -11.8%
CCOc1ncccc1C(=O)Nc1ccc(C)c(S(=O)(=O)N2CCCCCC2)c1	inactive: 0.155%
Cc1cc(OCc2cc(C(=O)NCc3csc(C(C)C)n3)no2)cc(C)c1Cl	inactive: 1.46%
CC(C)Oc1ccc(C(=O)NCCNC(=O)c2ccco2)cc1	inactive: 2.15%
Cc1onc(-c2c(Cl)cccc2Cl)c1C(=O)N1CCc2ccccc2C1	inactive: 2.21%
COc1ccc(CNC(=O)CCS(=O)(=O)c2cc3c(cc2Cl)NC(=O)CO3)cc1	inactive: 4.46%
COC(=O)c1ccc(/C(O)=C(\C#N)c2nc3ccccc3s2)cc1	inactive: -6.58%
CC(C)C1Nc2ccc(C(=O)N3CCN(c4ccccn4)CC3)cc2NC1=O (configuration not stated)	inactive: -1.11%
Cc1ccccc1NC(=O)C1(C)Cc2ccccc2C(=O)O1 (configuration not stated)	inactive: 5.12%
Cc1cccc(/C=C/C(=O)c2cc(Br)ccc(=O)c2O)c1	inactive: -2.48%
CC(C)CN=Cc1c(O)c([N+](=O)[O-])cc2oc3c(c12)CCCC3	inactive: 4.79%
COc1cccc(-c2nc(-c3ccc(NC(=O)c4cccnc4)cc3)no2)c1	inactive: 3.12%
COc1ccc(/C=C/C(=O)Nc2nc(C)cc(C)n2)cc1OC	inactive: -0.446%
CC(C)(CNC(=O)C1c2ccccc2-c2ccccc21)N1CCOCC1	inactive: 6.31%

SMILES	activity change, negative = inhibition
CN1C(=O)/C(=C/c2ccc(OCc3ccccc3F)cc2)NC1=S	inactive: 5.55%
CS(=O)c1ccc(-n2c(=O)n(Cc3ccccc3)c(=O)c3[nH]cnc32)cc1 (configuration not stated)	inactive: 3.25%
CCN(Cc1ccccc1)c1ccc(/C=C(\C#N)c2ccccn2)cc1	inactive: 1.81%
CCCCNC(=O)c1sc(=S)n2c1[nH]c(=O)c1ccccc12	inactive: -7.94%
COc1ccc(-n2nc(C(=O)NCC(=O)Nc3cc(OC)c(OC)c(OC)c3)c3ccccc3c2=O)cc1OC	inactive: 16.2%
CC(C)(C)c1ccc(C(=O)CC(Sc2ccc(Cl)cc2)C(=O)O)cc1 (configuration not stated)	inactive: -1.68%
CCCC(=O)Nc1cccn(Cc2ccccc2Br)c1=O	inactive: -0.796%
N#C/C(=N\Nc1ccc(Cl)c(Cl)c1)C(=O)C1CC1	inactive: -0.512%
Cc1cc(C(=O)CSc2nc3ccccc3[nH]2)c(C)n1CC1CCCO1 (configuration not stated)	inactive: -7.85%
COc1ccccc1-n1cnc2cc(NS(=O)(=O)c3ccc(Br)cc3)ccc21	inactive: 1.75%
O=C(CC1S/C(=N/N=C2CCCCCC2)NC1=O)Nc1ccc(Br)cc1F (configuration not stated)	inactive: 0.642%
O=C(Nc1cc(S(=O)(=O)N2CCCCC2)ccc1Cl)c1ccccc1NS(=O)(=O)c1ccc(F)cc1	inactive: -0.704%
CCOC(=O)C1(CCOc2ccccc2)CCN(Cc2cccc(OC)c2O)CC1	inactive: 2.62%
CC(C)Cc1ccc(C(C)C(=O)Nc2nccs2)cc1 (configuration not stated)	inactive: -2.22%
O=C(Nc1ccc(SC(F)F)cc1)c1ccc2c(=O)n3c(nc2c1)CCC3	inactive: -4.94%
CC(=O)N/N=C\c1ccccc1OC/C=C/c1ccccc1	inactive: 3.08%
COC(=O)Cc1c(C)[nH]n(-c2cc(Cl)cc(Cl)c2)c1=O	inactive: 3.08%
COc1ccc(C(=O)Nc2cccc(NC(=O)c3cccs3)c2)cc1OC	inactive: -1.55%
Cc1ccc(S(=O)(=O)N2[C@@H](c3ccccc3F)C(C(=O)O)=CC[C@H]2c2ccc(Cl)c(Cl)c2)cc1	inactive: 3.18%
CCOC(=O)CCCCCC(=O)Nc1ccc2c(c1)CC(=O)N([C@H](C)CO)C[C@@H](C)[C@H](CN(C)Cc1ccc3c(c1)OCO3)O2	inactive: 4.03%
Cc1nc(SCC(=O)N2CCN(c3ccccc3)CC2)n[nH]1	inactive: 3.85%
CC(C)Cc1nc2oc3c(Cl)ncnc3c2c2c1CCC2	inactive: -8.8%
N#C/C(=N\Nc1ccc(S(=O)(=O)N2CCc3ccccc32)cc1)C(N)=S	inactive: -7.06%
CC(Sc1nnc(-c2cccs2)n1Cc1ccccc1)C(=O)NCc1ccc2c(c1)OCO2 (configuration not stated)	inactive: 5.08%
COc1ccc(C2=NS(=O)(=O)N(C)C(C(=O)Nc3ccc4c(c3)OCO4)=C2)cc1OC	inactive: -4.61%
Cc1ccccc1-c1cc(C(=O)Nc2sc(C(=O)OC(C)C)c(C)c2C#N)c2ccccc2n1	inactive: -8.24%

Some of the entries so far, comma-delimited:
SMILES,"activity change, negative = inhibition"
N#C/C(=N\Nc1ccc(S(=O)(=O)N2CCc3ccccc32)cc1)C(N)=S,inactive: -7.06%
CC(Sc1nnc(-c2cccs2)n1Cc1ccccc1)C(=O)NCc1ccc2c(c1)OCO2 (configuration not stated),inactive: 5.08%
COc1ccc(C2=NS(=O)(=O)N(C)C(C(=O)Nc3ccc4c(c3)OCO4)=C2)cc1OC,inactive: -4.61%

(list continues)

SMILES	activity change, negative = inhibition
Nc1nc(SCC(=O)NCC2CCCO2)[nH]c(=O)c1NC(=O)c1ccc(F)c(F)c1 (configuration not stated)	inactive: -0.0353%
COc1ccc(CCNC(=O)c2ccc(-c3ccc([N+](=O)[O-])cc3Cl)o2)cc1OC	inactive: -13.2%
O=C(Nc1nnc(S(=O)(=O)N2CCCC2)s1)c1ccccc1F	inactive: 5.97%
CCN(C(=O)CSc1nnc(-c2ccccc2)o1)c1c(N)n(Cc2ccccc2)c(=O)[nH]c1=O	inactive: 0.435%
COc1ccc(/C=C/C(=O)c2ccc(NS(=O)(=O)c3ccc(C)cc3)cc2)cc1O	inactive: 3.83%
Cc1cc(C)c2oc(C(=O)Nc3ccc(S(=O)(=O)Nc4nccc(C)n4)cc3)cc(=O)c2c1	inactive: 3.87%
COc1cc(/C=N/OCC(=O)NC23CC4CC(CC(C4)C2)C3)ccc1OCc1ccccc1	inactive: 2.76%
Cc1cc(NC(=O)c2cc(-c3ccco3)on2)nn1Cc1ccc(Cl)cc1	inactive: -4.6%
Cc1ccc(-c2csc(NC(=O)c3ccc4c(=O)n5c(nc4c3)CCCCC5)n2)cc1	inactive: -9.13%
Cc1csc(NC(=O)c2cc3c(C)nn(Cc4ccccc4Cl)c3s2)n1	inactive: -4.48%
O=S(=O)(Nc1cccnc1)c1ccc(C2CCCCC2)cc1	inactive: 3.53%
O=C1S/C(=C\c2ccc(O)c([N+](=O)[O-])c2)C(=O)N1c1ccccc1Cl	inactive: -4.66%
COc1ccc(CNCc2cc(C)c(OC)cc2C)c(OC)c1	inactive: -6.88%
C=CCn1c(SCC(=O)c2cccs2)nc2sc(CC)cc2c1=O	inactive: -6.19%
CCOc1ccc(-n2c(SCC(=O)NC(C)CC)nc3n[nH]c(C)c3c2=N)cc1 (configuration not stated)	inactive: -1.4%
COc1ccc(OC)c(CCNC(=O)Cn2nc(C)c3c(C)n(-c4ccc(C)cc4)nc3c2=O)c1	inactive: -3.92%
COc1ccc2cc(/C=C3\SC(=S)NC3=O)c(N3CCOCC3)nc2c1	inactive: -5.33%
COc1ccc(CCNC(=O)c2cccc3c2C(=O)N(C2CCCCC2)C3)cc1OC	inactive: -2.45%
COC(=O)c1ccc(-c2noc(CN(C)CCC3CCCCO3)n2)cc1 (configuration not stated)	inactive: 2.57%
C=CCN1C(=O)C(Cc2ccc(OC)cc2)S/C1=N/N=C/c1ccco1 (configuration not stated)	inactive: 2.46%
C=C(C)c1cccc(C(C)(C)NC(=O)N(Cc2ccccc2)Cc2ccco2)c1	inactive: 4.82%
O=C(/C=C/c1ccc(OCCCF)cc1)Nc1ccnc(-c2ccncc2)n1	inactive: -2.51%
Cc1ccc(S(=O)(=O)Nc2ccccc2N2CCCCC2)cc1	inactive: -3.39%
O=c1[nH]c(-c2ccccc2F)nc2c1sc(=S)n2Cc1ccccc1	inactive: -3.17%
